Test results published in article PMC8977034 (Journal of Nanobiotechnology, 2022).

Experiment: peptide made by a vendor
Details: whole synthesis

Ac-LWALWK(Ac)K(Ac)K(Ac)RRHRRRHR
final HPLC purity: 96.12%
